Data as given in PubChem BioAssay AID504808 (Drosophila RNAi Screening Center, 2011).
Assay: 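Genes whose loss lifts activity of an E2F-responsive reporter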 (primary screen). Cell system: Drosophila S2 cells. Reagent: long dsRNA against Drosophila genes. Detection: 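Firefly luciferase driven by E2F sites, normalised to Renilla luciferase on the same minimal promoter, measured by plate reader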. Reading the numbers: E2F firefly: higher = more E2F reporter activity; Renilla normaliser: higher = more normaliser reporter signal. Call rule: 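a knock-down counted as active when the firefly/Renilla E2F signal rose above 50%, a threshold chosen arbitrarily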.
The screen tested about 21,000 reagents; below is a random part of those that have a named target and a result. In the full data, 18 (0.084%) got an active call. 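Raw counts without plate normalisation, one of two replicates; the ratio scores behind the calls were not deposited.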 A plus sign joins genes that one reagent is predicted to hit. The record does not give: the amount of reagent, the time to read-out.

no.	gene	amplicon	E2F firefly, rep 1	Renilla normaliser, rep 1	activity call
1	CG13843	DRSC14693	96291	5817	inactive
2	yellow-e2	DRSC15169	1.00e5	5643	inactive
3	CG31344	DRSC16069	1.08e5	5540	inactive
4	Ugt303B1	DRSC15141	1.05e5	4933	inactive
5	CG5758	DRSC02889	77788	4094	inactive
6	CG5758	DRSC02890	97167	4514	inactive
7	gdl-ORF39 + gdl	DRSC11350	1.64e5	8178	inactive
8	CG12917	DRSC06231	1.43e5	4699	inactive
9	CG10132	DRSC02013	77106	3817	inactive
10	dap	DRSC07601	2129	222	inactive
11	hop	DRSC20340	1.17e5	6690	inactive
12	Nepl8	DRSC02759	89443	3871	inactive
13	CG1105	DRSC12528	68725	3182	inactive
14	CG6026	DRSC15950	1.17e5	8090	inactive
15	CG42319	DRSC06645	1.06e5	4598	inactive
16	CG42319	DRSC06646	93125	4025	inactive
17	Takl2	DRSC15650	98189	5569	inactive
18	Swt1	DRSC20028	1.47e5	5364	inactive
19	Mkrn1	DRSC11870	1.44e5	7101	inactive
20	DZIP1	DRSC14620	1.13e5	5054	inactive
21	Etf-QO	DRSC06111	1.35e5	5119	inactive
22	Phb2	DRSC06512	50226	3082	inactive
23	Zif	DRSC12514	75647	3394	inactive
24	CG2681	DRSC18464	1701	812	inactive
25	CG17712	DRSC00266	80622	3798	inactive
26	Appl	DRSC17728	1757	1011	inactive
27	Grip	DRSC17940	57602	4418	inactive
28	Grip	DRSC18395	97777	6245	inactive
29	Ror	DRSC03414	1.49e5	4564	inactive
30	CG13148	DRSC06275	92147	4238	inactive
31	Osi4	DRSC12134	1.27e5	6486	inactive
32	CR12628 + Mgstl	DRSC03702	1.08e5	4437	inactive
33	CR12628 + Mgstl	DRSC20568	1.42e5	154	inactive
34	THG	DRSC01896	1.04e5	4474	inactive
35	Ptr	DRSC04852	1.04e5	4302	inactive
36	CG4956	DRSC15683	1.11e5	5892	inactive
37	Sgs8	DRSC11282	1.26e5	7363	inactive
38	Catsup	DRSC03288	1.02e5	4975	inactive
39	tefu	DRSC16060	99251	5712	inactive
40	CG11381	DRSC17780	58674	3844	inactive
41	CG33791 + CG18170	DRSC08523	94253	4057	inactive
42	CG33791 + CG18170	DRSC08601	91958	3921	inactive
43	CG10702	DRSC02097	82268	3291	inactive
44	CG17145	DRSC10247	1.27e5	6245	inactive
45	Reck	DRSC10504	68748	3458	inactive
46	Reck	DRSC10505	1.60e5	7887	inactive
47	CG13117	DRSC02215	1.28e5	4748	inactive
48	CG12863	DRSC06203	1.04e5	3656	inactive
49	conu	DRSC07810	1.21e5	3741	inactive
50	gammaSnap2	DRSC15992	1.48e5	7474	inactive
51	grim	DRSC11352	97661	6980	inactive
52	Gr77a	DRSC11446	61439	2145	inactive
53	Shawn + Tyler	DRSC19564	1.58e5	5706	inactive
54	Shawn + Tyler	DRSC19565	1.43e5	5140	inactive
55	CG31559	DRSC12172	1.40e5	7081	inactive
56	CG31559	DRSC12270	1.42e5	6382	inactive
57	CG1575	DRSC18069	7977	760	inactive
58	CG14421	DRSC17918	1.33e5	5503	inactive
59	loj	DRSC09791	85661	4266	inactive
60	CG8813	DRSC00706	90571	3676	inactive
61	CG5892	DRSC15910	1.16e5	6982	inactive
62	CG30385	DRSC06031	1.54e5	5331	inactive
63	CG17928	DRSC02644	1.02e5	3746	inactive
64	Tnpo	DRSC11309	66410	4013	inactive
65	Wnt2	DRSC05160	1.38e5	6341	inactive
66	Wnt2	DRSC07574	1.36e5	5097	inactive
67	CngA	DRSC06580	1.28e5	5255	inactive
68	CngA	DRSC07362	1.36e5	5020	inactive
69	CG13739	DRSC06410	1.47e5	5152	inactive
70	Drat	DRSC06600	4044	141	inactive
71	apolpp	DRSC17216	2002	816	inactive
72	Rpn12R	DRSC09842	1.57e5	7968	inactive
73	slam	DRSC03240	1.44e5	4909	inactive
74	CG18213	DRSC15316	1.19e5	5955	inactive
75	CG32462	DRSC11851	77574	4277	inactive
76	Sas-6	DRSC15061	1.21e5	6510	inactive
77	CG3909	DRSC14150	1.26e5	5267	inactive
78	VhaM9.7-a	DRSC08289	1.10e5	3989	inactive
79	mei-W68	DRSC07649	1.61e5	5706	inactive
80	par-1	DRSC05792	1.32e5	4549	inactive
81	par-1	DRSC06098	1.46e5	4862	inactive
82	par-1	DRSC06616	81878	3903	inactive
83	par-1	DRSC07660	1.16e5	4453	inactive
84	par-1	DRSC07661	1.40e5	4967	inactive
85	polo	DRSC11384	75762	3413	inactive
86	CG5225	DRSC15742	1.11e5	6684	inactive
87	COX6CL	DRSC00895	1.37e5	5272	inactive
88	CG12607	DRSC08287	93520	4001	inactive
89	spd-2	DRSC09682	92983	3927	inactive
90	dare	DRSC07602	3128	205	inactive
91	Ccdc58	DRSC10218	78755	3589	inactive
92	lncRNA:sphinx	DRSC17199	1.06e5	5885	inactive
93	CG4972	DRSC02798	1.55e5	5235	inactive
94	prc	DRSC11385	1.10e5	5874	inactive
95	CG14864	DRSC14987	1.08e5	5770	inactive
96	cold	DRSC00538	1.03e5	3751	inactive
97	CG10959	DRSC17769	7095	728	inactive
98	tey	DRSC11042	1.31e5	6255	inactive
99	PGRP-LC	DRSC08980	1.24e5	4474	inactive
100	PGRP-LC	DRSC10416	1.03e5	5004	inactive
101	PGRP-LC	DRSC10417	1.12e5	5401	inactive
102	CG17029	DRSC10240	1.59e5	7411	inactive
103	rogdi	DRSC10906	89861	3711	inactive
104	GluRIA	DRSC11176	1.03e5	3941	inactive
105	CG31031 (retired record)	DRSC13964	80490	3194	inactive
106	CG40486	DRSC20619	1.52e5	5212	inactive
107	Cyp9f3	DRSC16636	1.63e5	7336	inactive

Quoted from above, 11 entries:
no.	gene	amplicon	E2F firefly, rep 1	Renilla normaliser, rep 1	activity call
56	CG31559	DRSC12270	1.42e5	6382	inactive
57	CG1575	DRSC18069	7977	760	inactive
58	CG14421	DRSC17918	1.33e5	5503	inactive
59	loj	DRSC09791	85661	4266	inactive
60	CG8813	DRSC00706	90571	3676	inactive
61	CG5892	DRSC15910	1.16e5	6982	inactive
62	CG30385	DRSC06031	1.54e5	5331	inactive
63	CG17928	DRSC02644	1.02e5	3746	inactive
64	Tnpo	DRSC11309	66410	4013	inactive
65	Wnt2	DRSC05160	1.38e5	6341	inactive
66	Wnt2	DRSC07574	1.36e5	5097	inactive
